Results as given in article PMC3271191.

Target: T1, CEH-14 (C. elegans) (UniProt P20271)
T1 sequence: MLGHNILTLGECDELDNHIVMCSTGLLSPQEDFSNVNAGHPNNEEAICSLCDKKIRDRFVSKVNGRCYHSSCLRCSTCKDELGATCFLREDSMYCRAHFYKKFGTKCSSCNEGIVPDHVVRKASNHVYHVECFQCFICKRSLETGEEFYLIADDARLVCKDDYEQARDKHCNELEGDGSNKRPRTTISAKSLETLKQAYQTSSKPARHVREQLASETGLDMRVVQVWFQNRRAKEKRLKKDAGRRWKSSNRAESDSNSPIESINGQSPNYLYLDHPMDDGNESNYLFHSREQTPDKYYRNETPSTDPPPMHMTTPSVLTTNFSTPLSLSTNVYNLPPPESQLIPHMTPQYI
Assay: two-hybrid; direct assays: Gal4AD-TF prey plasmids transformed into the haploid Gal4DB-TF bait strain (MaV103); beta-galactosidase assay on overlay filter membranes and growth on selective plates plus 20, 40 or 60 mM 3-AT; individual yeast transformant colonies scored

**Q.** “AD-CEH-63 from the transcription factor array (lacks the N-terminus of CEH-63) (C. elegans) (domain or fragment)” was tested. Which binding did it give?
**A.** binds

No constants are given. Whether binding was seen depends on the method and setting. Binding calls can cover weak binding; strength is not graded here.
